From EP1840134B1 (NOVO NORDISK A/S, priority 1998, dated 2016)
At least one peptide structure holds a part that was inferred or is arguable (an end, a ring closure or a residue).

Test system: monoclonal antibody specific for the N-terminal region of GLP-1 (7-37)
Assay: Cross reactivity of the RIA antibody used to determine plasma concentrations
Format: binding
Conditions: RIA at 4°C
Method: The entire procedure was carried out at 4°C.
The assay was carried out as follows: 100 µl plasma was mixed with 271 µl 96% ethanol, mixed using a vortex mixer and centrifuged at 2600*g for 30 min. The supernatant was decanted into Minisorp tubes and evaporated completely (Savant Speedvac AS290). The evaporation residue was reconstituted in the assay buffer consisting of 80 mM NaH2PO4/Na2HPO4, 0.1 % HSA (Orpha 20/21, Behring), 10 mM EDTA, 0.6 mM thiomersal (Sigma), pH 7.5. Samples were reconstituted in volumes suitable for their expected concentrations, and were allowed to reconstitute for 30 min. To 300 µl sample, 100 µl antibody solution in dilution buffer containing 40 mM NaH2PO4/Na2HPO4, 0.1 % HSA, 0.6 mM thiomersal, pH 7.5, was added. A non-specific sample was prepared by mixing 300 µl buffer with 100 µl dilution buffer. Individual standards were prepared from freeze dried stocks, dissolved in 300 µl assay buffer. All samples were pre-incubated in Minisorp tubes with antibody as described above for 72 h. 200 µl tracer in dilution buffer containing 6-7000 CPM was added, samples were mixed and incubated for 48 h. 1.5 ml of a suspension of 200 ml per litre of heparin-stabilised bovine plasma and 18 g per litre of activated carbon (Merck) in 40 mM NaH2PO4/Na2HPO4, 0.6 mM thiomersal, pH 7.5, was added to each tube. Before use, the suspension was mixed and allowed to stand for 2 h at 4°C. All samples were incubated for 1 h at 4°C and then centrifuged at 3400*g for 25 min. Immediately after the centrifugation, the supernatant was decanted and counted in a γ-counter. The concentration in the samples was calculated from individual standard curves. Plasma concentrations were found, calculated as % of the maximum concentration for the individual compounds (n=2).

SMILES	cross reactivities
CC[C@H](C)[C@H](NC(=O)[C@H](Cc1ccccc1)NC(=O)[C@H](CCC(=O)O)NC(=O)[C@H](CCCCN)NC(=O)[C@H](C)NC(=O)[C@H](C)NC(=O)[C@H](CCC(N)=O)NC(=O)CNC(=O)[C@H](CCC(=O)O)NC(=O)[C@H](CC(C)C)NC(=O)[C@H](Cc1ccc(O)cc1)NC(=O)[C@H](CO)NC(=O)[C@H](CO)NC(=O)[C@@H](NC(=O)[C@H](CC(=O)O)NC(=O)[C@H](CO)NC(=O)[C@@H](NC(=O)[C@H](Cc1ccccc1)NC(=O)[C@@H](N)[C@@H](C)O)[C@@H](C)O)C(C)C)C(=O)N[C@@H](C)C(=O)N[C@@H](Cc1c[nH]c2ccccc12)C(=O)N[C@@H](CC(C)C)C(=O)N[C@H](C(=O)N[C@@H](CCCCN)C(=O)NCC(=O)N[C@@H](CCCNC(=N)N)C(N)=O)C(C)C [GLP-1(11-36)amide]	< 0.1%
CC[C@H](C)[C@H](NC(=O)[C@H](Cc1ccccc1)NC(=O)[C@H](CCC(=O)O)NC(=O)[C@H](CCCCN)NC(=O)[C@H](C)NC(=O)[C@H](C)NC(=O)[C@H](CCC(N)=O)NC(=O)CNC(=O)[C@H](CCC(=O)O)NC(=O)[C@H](CC(C)C)NC(=O)[C@H](Cc1ccc(O)cc1)NC(=O)[C@H](CO)NC(=O)[C@H](CO)NC(=O)[C@@H](NC(=O)[C@H](CC(=O)O)NC(=O)[C@H](CO)NC(=O)[C@@H](NC(=O)[C@H](Cc1ccccc1)NC(=O)[C@@H](NC(=O)CNC(=O)[C@H](CCC(=O)O)NC(=O)[C@H](C)N)[C@@H](C)O)[C@@H](C)O)C(C)C)C(=O)N[C@@H](C)C(=O)N[C@@H](Cc1c[nH]c2ccccc12)C(=O)N[C@@H](CC(C)C)C(=O)N[C@H](C(=O)N[C@@H](CCCCN)C(=O)NCC(=O)N[C@@H](CCCNC(=N)N)C(N)=O)C(C)C [GLP-1 (8-36)amide]	less than 1%
CC[C@H](C)[C@H](NC(=O)[C@H](Cc1ccccc1)NC(=O)[C@H](CCC(=O)O)NC(=O)[C@H](CCCCN)NC(=O)[C@H](C)NC(=O)[C@H](C)NC(=O)[C@H](CCC(N)=O)NC(=O)CNC(=O)[C@H](CCC(=O)O)NC(=O)[C@H](CC(C)C)NC(=O)[C@H](Cc1ccc(O)cc1)NC(=O)[C@H](CO)NC(=O)[C@H](CO)NC(=O)[C@@H](NC(=O)[C@H](CC(=O)O)NC(=O)[C@H](CO)NC(=O)[C@@H](NC(=O)[C@H](Cc1ccccc1)NC(=O)[C@@H](NC(=O)CN)[C@@H](C)O)[C@@H](C)O)C(C)C)C(=O)N[C@@H](C)C(=O)N[C@@H](Cc1c[nH]c2ccccc12)C(=O)N[C@@H](CC(C)C)C(=O)N[C@H](C(=O)N[C@@H](CCCCN)C(=O)NCC(=O)N[C@@H](CCCNC(=N)N)C(N)=O)C(C)C [GLP-1(10-36)amide]	< 0.1%
